In patent US6610681B1, “Neurotherapeutic clavulanate composition and method” (Revaax Pharmaceuticals, LLC, priority 1999, dated 2003):
At least one structure is not confirmed: it was looked up by name or label, or the drawing left a doubt.

System: male Wistar rats
Assay: elevated plus-maze
Format: in vivo, rat
Conditions: daily IP 7 days, CLAV 100 ng/kg, CDP 10 mg/kg
Excerpt: The elevated plus-maze was developed for screening anxiolytic and anxiogenic drug effects in the rat (Pellow et al., 1985). The method has been validated behaviorally, physiologically, and pharmacologically. The plus-maze consists of two open arms and two enclosed arms. […] Conversely, anxiogenic compounds like yohimbin or amphetamines reduce open arm entries and time spent in the open arms.
Male Wistar rats weighing 250-300 g were group housed in a normal 12:12 light-dark cycle with light on at 0800 hr and provided food and water ad libitum. The plus-maze consisted of two open arms, 50 cm long, 10 cm wide, […]. The two closed arms had the same dimensions but included a roof. The Plexiglas for the closed arms was painted black. Each pair of arms was arranged opposite to each other to form the plus-maze. The maze was elevated to a height of 50 cm. Eighteen animals were tested in the plus-maze 90 min following the IP injection of 1.0 μg/kg CLAV, 50 or vehicle control in a volume of ca. 0.3 ml. The order of treatments was counter balanced with at least 48 hrs between injections. At the start of the experiment, the animal was placed at the end of one of the open arms. Over a five min observation period, animals were scored for the latency to enter the closed arm, time spent in the closed arm and the number of open arm entries following the first occupation of the closed arm. The study produced tables of repeated measures. The data between treatments were compared with a two-way, repeated measures ANOVA followed by Bonferroni post hoc tests.
Chlordiazepoxide (Librium®) is a commonly prescribed anxiolytic that has been thoroughly characterized in preclinical studies. The effective anxiolytic dose in the plus-maze is 10-25 mg/kg (Lister 1987; File and Aranko 1988; Shumsky and Lucki 1994). […] However, it was discovered animals develop a tolerance to the motor depression with repeated daily administration of CDP for several days (Shumsky and Lucki 1994). […]

CNC1=Nc2ccc(Cl)cc2C(c2ccccc2)=[N+]([O-])C1 [CDP, Chlordiazepoxide]
open arm entries: no significant difference between treatments
latency to enter the dark closed arms (vs vehicle): significantly greater
time spent exposed to light in the open arms (vs vehicle): significantly greater
